From article PMC12224947
No constants are given. Whether binding was seen depends on the method and setting. Binding seen in cells or lysates may run through a third protein. Binding calls can cover weak binding; strength is not graded here. For some assays here: Where a sequence is shown, tags or fusion partners need not be part of it.

Legend:
[1] = biological target: T1, Prohibitin 1 (PHB1) (human (endogenous in DLD-1, HCT116 and SW480)) (UniProt P35232); assay: co-IP; endogenous PHB1 and Akt; lysates of SW480 cells overexpressing ARIH1 and of DLD-1 and HCT116 cells with shARIH1, with their controls
T1 sequence: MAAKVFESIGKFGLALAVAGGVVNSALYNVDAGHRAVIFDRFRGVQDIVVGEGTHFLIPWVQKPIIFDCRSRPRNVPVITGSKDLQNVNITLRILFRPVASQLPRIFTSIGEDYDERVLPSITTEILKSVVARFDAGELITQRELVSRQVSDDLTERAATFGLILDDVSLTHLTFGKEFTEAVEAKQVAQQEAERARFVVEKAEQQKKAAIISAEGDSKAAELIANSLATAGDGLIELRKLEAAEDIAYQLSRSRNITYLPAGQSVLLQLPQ

Myc-PHB1 = biological target: T2, Myc-PHB1 (UniProt P35232); assay: co-IP; HEK293T cells transfected for 24 h with different doses of Flag-ARIH1 together with Myc-PHB1 and His-Akt
T2 sequence: T1 sequence

| Substance | binding [1] | binding (Myc-PHB1) |
| --- | --- | --- |
| Akt | binds |  |
| His-Akt |  | binds |
